This note sets out measurements from patent US20170100458A1.

Sequences of proteins named here, by UniProt entry; tags and fusion partners are left off. Residues count along the entry.
UniProt P09405, residues 2-707: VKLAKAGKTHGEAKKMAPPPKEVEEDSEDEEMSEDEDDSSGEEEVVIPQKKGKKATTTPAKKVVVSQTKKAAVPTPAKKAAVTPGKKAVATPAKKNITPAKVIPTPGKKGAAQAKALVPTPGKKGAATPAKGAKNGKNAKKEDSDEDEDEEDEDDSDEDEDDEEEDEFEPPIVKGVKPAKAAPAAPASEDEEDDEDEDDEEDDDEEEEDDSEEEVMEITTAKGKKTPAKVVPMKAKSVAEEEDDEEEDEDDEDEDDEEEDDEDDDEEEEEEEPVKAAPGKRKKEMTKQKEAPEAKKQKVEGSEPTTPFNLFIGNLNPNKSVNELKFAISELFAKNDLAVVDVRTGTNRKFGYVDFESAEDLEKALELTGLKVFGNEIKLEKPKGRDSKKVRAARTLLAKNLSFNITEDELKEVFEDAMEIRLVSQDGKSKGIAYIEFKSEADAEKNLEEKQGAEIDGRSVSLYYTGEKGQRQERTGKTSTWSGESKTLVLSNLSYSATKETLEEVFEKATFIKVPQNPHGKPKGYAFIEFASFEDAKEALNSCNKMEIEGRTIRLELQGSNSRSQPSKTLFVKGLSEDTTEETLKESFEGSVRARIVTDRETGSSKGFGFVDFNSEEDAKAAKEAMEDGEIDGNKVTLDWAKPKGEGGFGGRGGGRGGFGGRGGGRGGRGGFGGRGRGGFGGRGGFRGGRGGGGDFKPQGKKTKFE
UniProt Q0VE82: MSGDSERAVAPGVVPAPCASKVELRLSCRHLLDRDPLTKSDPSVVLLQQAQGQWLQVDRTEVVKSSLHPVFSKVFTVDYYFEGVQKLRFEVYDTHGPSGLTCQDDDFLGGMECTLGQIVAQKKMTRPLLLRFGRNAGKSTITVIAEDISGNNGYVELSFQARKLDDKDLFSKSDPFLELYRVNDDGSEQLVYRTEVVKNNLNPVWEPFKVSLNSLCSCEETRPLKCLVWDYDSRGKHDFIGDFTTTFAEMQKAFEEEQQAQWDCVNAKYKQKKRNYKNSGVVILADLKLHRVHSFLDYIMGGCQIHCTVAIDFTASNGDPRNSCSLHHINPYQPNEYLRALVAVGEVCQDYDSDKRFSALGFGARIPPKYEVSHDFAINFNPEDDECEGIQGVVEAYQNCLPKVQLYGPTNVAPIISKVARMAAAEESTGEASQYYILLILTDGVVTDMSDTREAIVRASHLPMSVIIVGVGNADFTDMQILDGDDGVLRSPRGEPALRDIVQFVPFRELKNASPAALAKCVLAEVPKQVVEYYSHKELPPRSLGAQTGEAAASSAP

The target of this experiment is Nucleolin (endogenous, MDPC-23 cells) (mouse) (UniProt P09405). The experiment can be described thus: co-immunoprecipitation from MDPC-23 cell lysates, western blot with anti-Nucleolin; immunofluorescence co-localization.

These are yes or no findings as the source states them, for the method shown. In cells and extracts the contact can be indirect. Some binding calls cover weakened binding; strength is not graded here.

As for “Cpne7 (endogenous, mouse cells) (from UniProt Q0VE82 1-557)”, the binding entry is reported as “binds”.
